From publication PMC4908583 come the findings set out here.

Results are given in words; binding and its absence hold for the method and conditions named.

This assay has as its target NadA_(24–89) (head-only) (N. meningitidis strain 2996) (UniProt Q8KH85). The experiment in a line: SEC-MALS; SE-HPLC/MALLS, TSK Super SW3000, RT, ~40 uM sample, 0.1 M NaH2PO4, 0.4 M (NH4)2SO4 pH 6.0; both purified.

As to “NadA_(24–89) (head-only) (from UniProt Q8KH85 24-89) (domain or fragment)”, the binding result is given as “no binding”.
